## Primary screen of a compound library

Source: ChEMBL document CHEMBL3988442, “University of Dundee, Small-Polar-MMV Screening Library” (2021).

A: 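Phenotypic screen: M. tuberculosis growth, glucose 7H9 medium, 3 days; the read-out is not stated. Tested at 50 µM. The record gives no direction; compounds that gave an IC50 in retests scored well above the rest, so higher reads as more growth inhibition. Of about 69,000 compounds tested this way, about 760 (1.1%) reached 50% or more in at least one test.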
B: 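Growth of Mycobacterium tuberculosis over 4 days (cholesterol / DPPC medium with tyloxapol); the read-out is not stated. Tested at 50 µM. Higher reads as more growth inhibition (inferred: compounds with an IC50 in retests scored well above the rest). About 69,000 compounds were tested under these conditions; 0.54% (about 370) showed 50% or more at least once.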

Results are given as percent effect.
The record does not define 0% and 100%; most values in the screen are far below 50% and negative numbers occur (in some assays of this library far below -100).
The compounds are a random part of those screened.
Two or more numbers in one place are separate tests of the same structure; such repeats can differ widely.
A dash means the value is not listed here; it may have been measured.

Compound	A	B
Cc1c(Cl)cccc1NC(=O)N1CCN(Cc2ccccn2)CC1	22.4%	11.58%
CC(C)c1nccn1C1CCCN(C(=O)c2ccn(C)c(=O)c2)C1 (stereo unspecified)	-11.07%	-17.61% & -6.399%
CCC(C)(COc1ncccc1Cl)NCC(=O)NCC(C)C (stereo unspecified)	16.89%	14.14%
CCn1cc(C(=O)N2CCCC3(CCC(=O)N(CCC(C)C)C3)C2)cn1 (stereo unspecified)	6.237%	-9.524% & -10.79%
COCC(=O)Nc1cnc(N2CCOCC2)nc1	-4.408%	14.38%
O=C(O)C(F)(F)F.[H][C@@]12C[C@@H](c3nnc(C)[nH]3)O[C@]1([H])CN(C(=O)c1c(C)noc1C)C2	-12.76% & -1.787%	8.093%
CCOCC(=O)NCCc1nc(C)cc(C(F)(F)F)n1	24.6%	8.471%
O=C(c1ccc(Cn2ccccc2=O)o1)N1CCC2(CC1)OCCO2	-16.94%	-8.907%
Cc1nnc(N2CCOC(C)(C(=O)NC3CCCC3)C2)c2ccccc12 (stereo unspecified)	2.978%	8.115%
COC(=O)CNC(=O)c1sccc1N(C)S(=O)(=O)c1ccc(Cl)cc1	-26.51%	-17.59%
COCc1cnc2n1CCN(C(=O)c1oc3ccccc3c1C)C2C (stereo unspecified)	-25.74%	-18.64%
O=C(Cc1cccc(O)c1)NC1CCN(c2cccc(Cl)c2)C1 (stereo unspecified)	15.33%	13.27%
CN(C)CC(=O)N1CC2(CCN(S(=O)(=O)c3ccccc3)C2)C1	-1.851%	3.681%
O=C(c1ncoc1-c1ccco1)N1CCCN(c2ncccn2)CC1	12.19%	-3.84%
COc1nccc(N2CC[C@H](CO)[C@@H](O)C2)c1C#N	11.76%	2.284%
CC(C)Cc1nc(OCC(N)=O)c(C#N)c2c1CCCC2	12.5%	12.14%
CC(C)c1nc(C(=O)NCCn2ccnc2)nn1-c1cccc(F)c1	10.14%	3.579%
O=C(O)C(F)(F)F.[H][C@@]12COC[C@]1([H])[C@H](NC(=O)C1CCC1)CN2Cc1cccs1	-17.33% & -6.531%	28.89% & -11.06%
CCOCC1CN(C(=O)c2ccsc2)Cc2nn(C)cc21 (stereo unspecified)	2.929% & 8.958%	6.077%
C[C@@H]1CN(S(C)(=O)=O)C[C@]12CCN(Cc1cccnc1)C2=O.O=C(O)C(F)(F)F	-22.18%	-9.456% & -2.712%
Cc1cc(C2CCCN2C(=O)COc2ccc(CC#N)cc2)on1 (stereo unspecified)	9.056%	3.598%
Cc1nnc(NC(=O)N2CCCCC2CCO)s1 (stereo unspecified)	15.71%	1.158%
CC(NC(=O)c1nc(=O)[nH][nH]1)c1ccc(OCC2CC2)c(F)c1 (stereo unspecified)	-24.63% & 3.887%	12.86%
CC1(NC(=O)Cc2csc(-c3cccc(Cl)c3)n2)CCS(=O)(=O)C1 (stereo unspecified)	-20.46%	-24.31%
CC(=O)c1cccc(NCC(=O)NC(N)=O)c1	-44.85%	-29.5%
COc1ccc(C(=O)C2CCCN(c3nccc(N)n3)C2)c(C)c1 (stereo unspecified)	29.18%	9.326%
COCCCOc1ccc(C(=O)N(C)CCC(C)C)cn1	-15.81%	-0.8695% & 4.94%
Cc1ccc(CN2CCN(Cc3cc(C)n[nH]3)CC2CCO)cc1 (stereo unspecified)	-30.01%	-3.083%
CCCS(=O)(=O)N1CCC(c2ccc(OC)cc2)CC1	-5.004% & -18.75%	5.893%
COc1cccc(OCC2CCCN(Cc3ccncc3)C2)c1 (stereo unspecified)	32.58%	8.297%
O=C(NCCc1nnc2n1CCC2)N(Cc1ccco1)C1CCCC1	-3.049% & -8.015%	31.75%
CC[S+]([O-])CCc1nc(CC(C)C)nn1-c1ccc2c(c1)OCCO2 (stereo unspecified)	-44.2% & -2.424%	4.177%
CN1CCC(C2CCN(Cc3cccc(-n4cccn4)c3)CC2)C1 (stereo unspecified)	47.87%	13.39%
CN1CCCC(Cc2cncc(Br)c2)CC1 (stereo unspecified)	29.39%	-0.6864%
CC(Cn1cccn1)NC(=O)NCc1ccnc(OC2CCCC2)c1 (stereo unspecified)	23.81%	13.73%
COc1cccc(C2=CCN(CCN3CCOC3=O)CC2)c1	-26.81%	-7.201%
CC(=O)N1CCC2(CCN(Cc3cccc(F)c3)CC2)CC1.O=C(O)C(F)(F)F	-7.897% & 8.748%	-10.62%
[H][C@@]12CCC(=O)N(CCCSC)[C@]1([H])CCN(Cc1ncc[nH]1)C2	15.59%	3.848% & 5.533%
Cc1nc(CCC(=O)N2Cc3cnc(-c4ccccc4)nc3C2)n[nH]1	-34.6%	-26.79%
CNS(=O)(=O)c1ccc(C(=O)Nc2ccc3c(c2)C(=O)NC3)cc1	4.632%	-11.68%
Cc1cc(I)cnc1NC(=O)C(C)(C)C	-11.9%	-31.62%
[H][C@@]12OCCN(C(=O)COc3ccc(F)cc3)[C@@]1([H])CC[C@@H]2OCC1CC1	17.59%	11.56%
Cc1cnc(C(=O)N2CCC3(CCN(Cc4ccccn4)C3=O)C2)cn1.O=C(O)C(F)(F)F (stereo unspecified)	-3.725%	10.26%
CCN1CCOC(CNCc2ccccc2OCc2ccccn2)C1 (stereo unspecified)	-0.6392%	-7.948%
O=C(NC1CC1)N1CCN(c2cnccn2)CC1	-77.58% & -2.009%	-8.349%
Cc1ccc(CN2CCOC3(CCN(C(=O)C4CCOC4)CC3)C2)cc1.O=C(O)C(F)(F)F (stereo unspecified)	9.782% & 8.955%	13.17%
CCCN1CCC(Cc2nc(CN3CCN(C)CC3)no2)CC1	-10.69% & 4.73%	12.96% & -1.322%
Cc1cnn(CCC(=O)N2CCCN(c3ccccc3C#N)CC2)c1	13%	9.522%
COCCCNC(=O)Cc1nc(-c2ccncc2)n[nH]1	-7.844%	10.3%
CCc1nc(C2CCCN2Cc2cc(C)nc3ccccc23)no1 (stereo unspecified)	-3.418%	4.991%
CC(C)c1cccc(-n2cc(O)c(C(N)=O)n2)c1	19.57%	-
COCCNc1ncc(-c2cccc(OC)c2)c(-c2nccn2C)n1	5.846%	7.507%
O=C(c1cc(COc2ccc3c(c2)OCO3)[nH]n1)N1CCSCC1	48.24%	50.54% & 52.12%
COc1cc(C(=O)NC2COc3ccccc3C2)ccc1OCC(N)=O (stereo unspecified)	-1.867% & -15.58%	-15.83%
[H][C@@]12CCN(C(=O)c3ccoc3)CC[C@@]1([H])N(c1cccnc1)CCO2	2.729% & 6.904%	5.369%
CO[C@H]1CN(C(=O)c2ccc3oc(C)cc3c2)CC[C@@]12CCCO2	5.553%	-2.166%
CN(C)CC(=O)N1CCC2(CC1)CN(c1ncccn1)CCO2.O=C(O)C(F)(F)F	-10.84%	-25.81% & -17.61%
COc1cccc2c1OCC(C(=O)NCc1nc3c(s1)CCCC3)C2 (stereo unspecified)	-8.462% & 0.2777%	-28.46%
CCC(=O)N1CCC(Cc2ccccc2-c2cccc(C)c2)(C(N)=O)C1 (stereo unspecified)	-34.83%	-15.22%

The last 6 entries again:

For COc1cc(C(=O)NC2COc3ccccc3C2)ccc1OCC(N)=O (stereo unspecified) the result was A: -1.867% & -15.58%; B: -15.83%.
For [H][C@@]12CCN(C(=O)c3ccoc3)CC[C@@]1([H])N(c1cccnc1)CCO2 the result was A: 2.729% & 6.904%; B: 5.369%.
For CO[C@H]1CN(C(=O)c2ccc3oc(C)cc3c2)CC[C@@]12CCCO2 the result was A: 5.553%; B: -2.166%.
For CN(C)CC(=O)N1CCC2(CC1)CN(c1ncccn1)CCO2.O=C(O)C(F)(F)F the result was A: -10.84%; B: -25.81% & -17.61%.
For COc1cccc2c1OCC(C(=O)NCc1nc3c(s1)CCCC3)C2 (stereo unspecified) the result was A: -8.462% & 0.2777%; B: -28.46%.
For CCC(=O)N1CCC(Cc2ccccc2-c2cccc(C)c2)(C(N)=O)C1 (stereo unspecified) the result was A: -34.83%; B: -15.22%.